Among the data in PMC13557503 are binding values, retold here.

Amino acid sequences for entries named in this document (tags omitted). A change or cut given only in a name is not applied to a line headed by its entry.
UniProt F7VT55: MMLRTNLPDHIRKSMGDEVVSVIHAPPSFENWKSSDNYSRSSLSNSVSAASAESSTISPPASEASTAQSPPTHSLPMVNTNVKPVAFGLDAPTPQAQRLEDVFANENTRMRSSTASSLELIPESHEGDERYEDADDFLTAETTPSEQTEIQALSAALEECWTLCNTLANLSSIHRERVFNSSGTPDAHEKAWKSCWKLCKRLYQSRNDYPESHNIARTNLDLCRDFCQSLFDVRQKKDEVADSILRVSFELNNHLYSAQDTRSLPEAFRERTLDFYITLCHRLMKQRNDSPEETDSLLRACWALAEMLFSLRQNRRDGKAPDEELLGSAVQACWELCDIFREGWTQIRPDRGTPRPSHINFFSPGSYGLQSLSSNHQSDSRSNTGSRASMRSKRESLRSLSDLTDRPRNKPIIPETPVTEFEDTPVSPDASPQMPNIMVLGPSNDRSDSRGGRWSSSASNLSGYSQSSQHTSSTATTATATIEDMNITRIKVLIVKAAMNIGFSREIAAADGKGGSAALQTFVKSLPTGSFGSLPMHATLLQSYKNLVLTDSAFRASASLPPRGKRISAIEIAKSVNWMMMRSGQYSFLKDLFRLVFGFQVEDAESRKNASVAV
UniProt F7W136: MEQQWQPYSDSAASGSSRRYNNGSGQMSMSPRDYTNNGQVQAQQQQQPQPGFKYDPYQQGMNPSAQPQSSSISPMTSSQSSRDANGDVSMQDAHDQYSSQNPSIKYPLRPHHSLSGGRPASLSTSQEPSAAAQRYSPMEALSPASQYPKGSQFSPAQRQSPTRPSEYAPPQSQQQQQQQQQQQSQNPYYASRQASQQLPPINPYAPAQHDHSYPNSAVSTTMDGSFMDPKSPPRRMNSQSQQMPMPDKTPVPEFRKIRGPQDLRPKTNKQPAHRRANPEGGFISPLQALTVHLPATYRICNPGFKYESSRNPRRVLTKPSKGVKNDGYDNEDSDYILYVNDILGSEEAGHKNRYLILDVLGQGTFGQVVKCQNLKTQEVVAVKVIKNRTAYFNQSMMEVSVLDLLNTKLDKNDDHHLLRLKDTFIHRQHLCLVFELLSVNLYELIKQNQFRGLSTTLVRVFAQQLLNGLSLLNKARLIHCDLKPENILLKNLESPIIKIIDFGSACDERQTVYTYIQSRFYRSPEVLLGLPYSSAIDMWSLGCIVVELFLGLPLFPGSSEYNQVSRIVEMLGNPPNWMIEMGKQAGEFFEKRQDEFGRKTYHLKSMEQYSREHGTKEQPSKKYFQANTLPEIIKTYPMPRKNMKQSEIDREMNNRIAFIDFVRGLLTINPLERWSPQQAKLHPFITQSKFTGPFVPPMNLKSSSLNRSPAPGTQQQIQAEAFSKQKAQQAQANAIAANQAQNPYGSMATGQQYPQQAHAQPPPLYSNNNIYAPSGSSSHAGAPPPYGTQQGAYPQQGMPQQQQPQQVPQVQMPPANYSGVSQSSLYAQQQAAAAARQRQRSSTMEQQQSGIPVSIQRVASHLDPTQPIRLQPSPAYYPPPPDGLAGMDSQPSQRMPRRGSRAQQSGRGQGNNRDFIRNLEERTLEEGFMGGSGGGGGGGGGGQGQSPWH
UniProt F7VSX1: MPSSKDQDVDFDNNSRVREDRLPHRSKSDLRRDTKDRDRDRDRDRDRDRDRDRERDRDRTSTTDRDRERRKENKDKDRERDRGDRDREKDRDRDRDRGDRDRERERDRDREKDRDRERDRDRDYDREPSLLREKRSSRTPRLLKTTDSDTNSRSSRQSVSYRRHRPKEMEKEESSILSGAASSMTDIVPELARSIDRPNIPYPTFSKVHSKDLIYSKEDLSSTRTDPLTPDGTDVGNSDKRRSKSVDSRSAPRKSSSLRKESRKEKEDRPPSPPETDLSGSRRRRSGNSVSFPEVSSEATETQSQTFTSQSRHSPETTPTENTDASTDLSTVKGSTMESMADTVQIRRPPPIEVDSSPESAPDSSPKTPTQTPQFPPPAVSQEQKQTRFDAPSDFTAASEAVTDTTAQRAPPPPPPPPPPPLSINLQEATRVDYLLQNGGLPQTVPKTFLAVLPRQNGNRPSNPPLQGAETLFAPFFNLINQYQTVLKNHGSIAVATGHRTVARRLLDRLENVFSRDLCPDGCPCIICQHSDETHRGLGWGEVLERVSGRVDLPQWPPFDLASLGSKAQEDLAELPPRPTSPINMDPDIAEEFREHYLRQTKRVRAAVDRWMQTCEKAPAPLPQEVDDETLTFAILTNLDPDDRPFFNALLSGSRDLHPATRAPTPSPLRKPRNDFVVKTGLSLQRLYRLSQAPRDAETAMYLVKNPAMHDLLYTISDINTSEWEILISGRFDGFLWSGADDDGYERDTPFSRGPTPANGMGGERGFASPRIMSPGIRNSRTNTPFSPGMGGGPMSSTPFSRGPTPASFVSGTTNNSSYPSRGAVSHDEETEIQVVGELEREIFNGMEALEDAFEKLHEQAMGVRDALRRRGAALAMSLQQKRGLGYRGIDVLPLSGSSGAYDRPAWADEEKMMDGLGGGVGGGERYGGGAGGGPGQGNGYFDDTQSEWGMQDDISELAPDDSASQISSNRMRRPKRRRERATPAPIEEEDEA

No constants are given. Whether binding was seen depends on the method and setting. In cells and extracts the contact can be indirect. A yes stands for co-enrichment or nearness to the bait. Other partners may have been found.

The target of assay [1] is SmDOC1-TurboID (S. macrospora) (UniProt F7W7B4). As to the kind of experiment: proximity labelling; TurboID BioID in vivo with SmDOC1-TurboID from the native locus as bait against wt::egfp-TurboID^ect; liquid BMM, three days, 27 °C, constant light; extraction with 4% SDS, Strep-Tactin Sepharose, LC-MS; n = 5; FDR 0.01, s0 2.
Assay [2] has as its target SCI1-TurboID (S. macrospora). As to the kind of experiment: proximity labelling; TurboID BioID in vivo with SCI1-TurboID as bait (Δsci1::sci1-TurboID^ect) against the free TurboID control (wt::free-TurboID^ect); liquid BMM, three days, 27 °C, constant light; extraction with 4% SDS, Strep-Tactin Sepharose, LC-MS; eight replicates; FDR 0.01, s0 0.1.
For assay [3], the target named is SCI1-TurboID (S. macrospora). Briefly: proximity labelling; TurboID BioID in vivo with SCI1-TurboID as bait (Δsci1::sci1-TurboID^ect) against the SmSTRIPAK-dependent control Δpro11Δsci1::sci1-TurboID^ect; liquid BMM, three and four days, 27 °C, constant light; extraction with 4% SDS, Strep-Tactin Sepharose, LC-MS; eight replicates; FDR 0.01, s0 2.

For SMAC_05755 (from UniProt F7VT55), the binding entry in assay [1] is “binds”.

Turning to YAK1 (from UniProt F7W136), the binding result in assay [1] is reported as “binds”.

Turning to SMAC_05428 (from UniProt F7VSX1), in assay [1], the binding entry is on record as “binds”.

B1: PRO22 (protein, UniProt F7VWV9 1-1120)
chain: MTIMNALWSKATSSSGDSAQKSAKPTNDAVNTTSEALPDLSERPNAPALPARPALQRNQPSAPPPAAPSNPPPPVPSGSGSGNANNASAQPQDSLSLAQLRRIVAEFPKSEPIAYDYVYSDMGPIEEEVDEWFFYDFWQYVRLNNANHAFDSAWVKMYGEDETWESVDDDGREKFVRNEVEQLQVSSDKTARVEAIGTLLYIVLGRWTATVKKANLPNLADHKVKSAATKEQLDAMKAGVKLLAKYGGLPPMWDALRKAFELFWADDGDASQRVQANNEELMELMHLMTILYISLQTTMDDVEDMAVARKELLALNPNLVHFMLHATAKLRWDDRNILPQAQVGSATFGIPVAANQHRMLMSSQVFLLFWKSLLLVFGGSKHIAEAKKATAETLSDVKDKEIITASPLDYHVFRQEITSKYPSYIPPQCAIPLEAEQTSILPPLPNHPTRNNGQNGILPGPPNQSASASILHQPVHIATPAPSPPPSPGVGGKGGKKQNYQTNQNFPFMYPPLDATSNSAGGKGGAGLQDLLVGRKWEGSDVPASIIEAGELFSTRTRMTRATRQLWEERERFLKFERGWEGADEDLIDELDLSELTLEEKEELGLLKESEKKKEKHGHEIDLGPRPVDDDIKRRLEAVEEFYKEALPHLQSLVIVLLKAIVAIASSFVQPPPGQQNPGPQNNGRAGGGPPQGRGQNNGNNASNDPPSPSDDNVDEARSREIAAKAVTGIMILLLKWLKLSHILKFEYFTQLLLDSNYLPLVLKLFALHDVQQVVESKTDRIEHSFFYFCASRSGVIPPQGLINPTATDFEDVDVSEDEAAPPAIKRNRSPPGAEKGGPPDASSQPTQQQQQQQRFENSDVQSRPEVDELGYPVNPLPKEPITDFSRRNFFSLINYLRVMQKICKHKAHRNLLLVHYKSSNILRKSLKVPQQELRLYTLKLFKNQVPYCGRKWRQSNMRVITAIYLHCRPELRDEWLSGSDVDAEVEEALPLEQALRSLTHWFNVQRYPERMGAEVTAAMREERDFFTRELEKSDWMGWEGIMAGGGMGMDGGGGGPEPMMGMQGMQGMPGMPGMGMGMNMGMPGMGIGGMPGMGGMAGIEYAAAAAAAQTEHENSMGWS
Turning to B1, the binding entry in assay [2] and in assay [3] was “binds” in each case.

B2: PRO11 (protein, UniProt Q70M86 1-845)
chain: MGTNGVHVSFGAGHEMGGVMGNGSGQPPATEYTLQGVMRFLQTEWHRHERDRNAWEIEKQEMRARIANLEGQARRADATQKALKRYVSILEKKVKEQSAALKSGGKEKGVEDEAEAEDNKTKLDRSALIQEKLRPNTKLSGAPNEAENVEIGPPDDESARNELKTFLDQCQAEFTYLMVTPANPQPPRESPPLPILDDFREGEALNQQLEQSYQRSQQSQIRDLLAQQAAAANATNVAAVQSQQQQPQQQQHAVGPRPQTNQPPKGYGELAQGAPMERSSRGQQLHDILKSGETPDWSASMQSQPVEEPTSALSKAPPMVRGDGREPAVPKSASTTDAWDFNESNFQDPNAMPQPTPQQSFSSRPDTDAFPSAENLTKSPNRGALSHRRKSSSGMARRRSAEHELSLGSLQQKAEGTMFKFRFGLRGHLDVVRTVIFSGGGSPGEPEICTAGDDGLVKRFHIPDRHIGQRNADGDLDVAADFTHRGHSGAVLSLASWSPSPNFSTGGRAQGDGWIFSGGQDATIRVWERGRVDPKATLDGHTDAVWALCVLPTNLGAIFGQTNSHGPPDRILLVSGAADGTVKVWAVSAPPQLTSPQPGPGRRGPGGRVRGNSMSSGSAFPSSPQPTTASNSPFHHTLVHTIKRANSEASPTCITALSPNGETFAVSYADAAIIVYDTRSGEEIGTMASLDTYDGTNNTAVNAVVATTVGLDQTQGPGGEDESGGGPTGGGRSMAGSGVEGTIISGHEDRYIRFFDANSGQCTYNMLAHPGSVSSLSLSPDGRELVSAGHDMSLRFWSLETRSCTQEMTCHRSMRGEGVCAVVWSQDGRWVVSSGGDGMVKVYAR
Consider B2, for which the binding result in assay [2] and in assay [3] was “binds” each time.
